Binding data for one substance are collected here from article PMC9117658.

The chains behind the UniProt entries cited, without tags or fusion partners. Where a name states a change or a piece, a line headed by the entry shows the natural chain unless it says otherwise.
UniProt P68104: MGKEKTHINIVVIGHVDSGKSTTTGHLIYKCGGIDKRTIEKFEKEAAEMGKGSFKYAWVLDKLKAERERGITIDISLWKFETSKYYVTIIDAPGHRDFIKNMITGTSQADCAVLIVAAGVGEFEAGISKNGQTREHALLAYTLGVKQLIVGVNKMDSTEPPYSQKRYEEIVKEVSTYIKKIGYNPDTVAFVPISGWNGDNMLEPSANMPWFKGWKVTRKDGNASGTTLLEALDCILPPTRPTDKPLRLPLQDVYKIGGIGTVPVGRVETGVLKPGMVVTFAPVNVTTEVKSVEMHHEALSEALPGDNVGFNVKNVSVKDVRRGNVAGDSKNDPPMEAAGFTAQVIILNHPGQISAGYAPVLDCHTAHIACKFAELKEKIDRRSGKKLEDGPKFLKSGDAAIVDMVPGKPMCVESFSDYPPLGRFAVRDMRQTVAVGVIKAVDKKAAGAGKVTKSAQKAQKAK
UniProt Q00987: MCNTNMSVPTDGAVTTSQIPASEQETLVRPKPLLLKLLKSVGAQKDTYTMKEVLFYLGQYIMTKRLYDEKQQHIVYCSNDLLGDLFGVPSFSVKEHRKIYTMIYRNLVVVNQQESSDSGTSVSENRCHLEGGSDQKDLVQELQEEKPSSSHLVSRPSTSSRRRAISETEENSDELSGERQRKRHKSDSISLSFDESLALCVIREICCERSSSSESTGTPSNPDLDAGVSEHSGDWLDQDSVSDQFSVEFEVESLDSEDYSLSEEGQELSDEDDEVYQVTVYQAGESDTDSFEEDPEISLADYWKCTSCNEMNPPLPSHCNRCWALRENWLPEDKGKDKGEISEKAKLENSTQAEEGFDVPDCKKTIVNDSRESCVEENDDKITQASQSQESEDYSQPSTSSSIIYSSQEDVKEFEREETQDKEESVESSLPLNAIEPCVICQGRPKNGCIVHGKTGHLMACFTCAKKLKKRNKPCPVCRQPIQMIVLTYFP

Results are given in words; binding and its absence hold for the method and conditions named. In cells and extracts the contact can be indirect. Binding calls can cover weak binding; strength is not graded here.

The experiment deals with EEF1A1 (human (endogenous in AGS and MKN-45)) (UniProt P68104). Kind of experiment: co-IP; anti-EEF1A1 antibody on Protein A/G PLUS-Agarose beads, incubated with protein lysate of AGS and MKN-45 cells transfected with pcDNA EEF1A1 or control pcDNA; also AGS cells transfected with tRF-Val at 0, 10, 20, 50 and 100 nmol; blots with anti-MDM2 and anti-p53; IgG as control.

For MDM2 (from UniProt Q00987), the binding result is recorded as “binds”.
